Values from PubChem BioAssay AID1259308 (NCATS, 2017)
Aim: 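Candidate targets for better recombinant protein yield in mammalian cells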 (primary screen). Cells: human HEK293 embryonic kidney cells stably expressing firefly luciferase (HEK-CMV-Luc2-Hygro). Knock-down reagent: single siRNA against human genes, 0.8 pmol siRNA per well. Timing: 72 h. Read-out: 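Reporter luminescence and viable-cell signal on separate replicate plates, given as percent of non-targeting control and median/MAD z-scores, plus per-cell luciferase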. Scale: total luciferase, z-score: higher = more reporter protein produced. Call rule: 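Active when the median/MAD z-score for overall luciferase is greater than 3; a gene was taken forward for validation with new siRNAs if at least two of its three siRNAs passed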. Meaning of the calls: active = raised luciferase; inactive = no rise.
The whole screen tested about 59,000 reagents; below is a part drawn at random. Of all reagents, about 1,510 (2.6%) got an active call. 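Calls use total luciferase alone and ignore viability, so some active siRNAs may act by altering cell number.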 Unmarked entries are inactive. Reagents against one gene are numbered here. Further read-outs or replicates are left out here.

total luciferase, z-score, by gene and reagent
CBX4 (chromobox 4): #1 0.55; #2 2.58; #3 -1.23
CEMP1 (cementum protein 1): #1 3.83 (active); #2 0.574; #3 1.11
KIF19 (kinesin family member 19): #1 0.394; #2 -0.28; #3 -1.09
DEFB127 (defensin beta 127): #1 -1.33; #2 1.6; #3 0.201

Called active, of those listed so far:
total luciferase, z-score, by gene and reagent
CEMP1 (cementum protein 1): #1 3.83 (active)

Additional reagents:
total luciferase, z-score, by gene and reagent
RPF2P1 (ribosome production factor 2 homolog pseudogene 1): #1 -0.404; #2 -1.65; #3 -1.59
RALB (RAS like proto-oncogene B): #1 0.163; #2 0.0863; #3 0.522
FAABTP (fatty acid amide binding transmembrane protein): #1 1.21; #2 2.96; #3 -1.12
NDUFA12 (NADH:ubiquinone oxidoreductase subunit A12): #1 -1.51; #2 -0.028; #3 -0.463
